No constants are given. Whether binding was seen depends on the method and setting. Some results given as binding are weak or reduced against the parent protein; the word gives no strength.
Target: HA-tagged hNOD2 (hNOD2-HA) (human) (UniProt Q9HC29)
Experiment: native gel or EMSA

By UniProt entry, the sequences of proteins in these tests, tags left out.
UniProt Q9HC29: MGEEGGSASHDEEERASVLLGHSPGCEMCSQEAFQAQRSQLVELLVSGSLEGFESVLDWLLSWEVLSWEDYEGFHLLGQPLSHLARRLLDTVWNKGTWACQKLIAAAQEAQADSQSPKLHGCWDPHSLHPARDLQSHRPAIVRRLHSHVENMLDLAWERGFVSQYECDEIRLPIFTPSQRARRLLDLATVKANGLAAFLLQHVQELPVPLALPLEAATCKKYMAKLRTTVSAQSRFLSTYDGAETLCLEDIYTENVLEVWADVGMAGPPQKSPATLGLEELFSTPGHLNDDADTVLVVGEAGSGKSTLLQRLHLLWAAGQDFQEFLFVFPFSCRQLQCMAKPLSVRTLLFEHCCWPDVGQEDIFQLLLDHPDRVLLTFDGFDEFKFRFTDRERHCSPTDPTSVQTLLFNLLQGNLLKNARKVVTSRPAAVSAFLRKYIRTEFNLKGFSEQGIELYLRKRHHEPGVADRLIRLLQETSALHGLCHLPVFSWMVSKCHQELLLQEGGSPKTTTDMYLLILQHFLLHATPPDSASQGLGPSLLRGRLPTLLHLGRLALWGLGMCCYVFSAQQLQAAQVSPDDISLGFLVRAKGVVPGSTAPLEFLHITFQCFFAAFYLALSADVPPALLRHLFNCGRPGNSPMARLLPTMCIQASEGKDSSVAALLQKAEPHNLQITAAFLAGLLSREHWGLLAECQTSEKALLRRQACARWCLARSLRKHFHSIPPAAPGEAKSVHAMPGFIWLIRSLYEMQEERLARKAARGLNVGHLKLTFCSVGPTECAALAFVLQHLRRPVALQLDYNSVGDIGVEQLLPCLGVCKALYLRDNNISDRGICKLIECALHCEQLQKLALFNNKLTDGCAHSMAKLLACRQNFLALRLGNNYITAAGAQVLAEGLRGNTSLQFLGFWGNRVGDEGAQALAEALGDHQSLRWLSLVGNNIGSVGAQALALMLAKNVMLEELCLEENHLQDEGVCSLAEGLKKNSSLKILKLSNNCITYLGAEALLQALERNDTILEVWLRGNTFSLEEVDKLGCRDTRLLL

## HA-tagged hNOD2 (hNOD2-HA) (from UniProt Q9HC29 1-1040)
  binding: binds

Reference: doi:10.1101/2024.02.19.580982
